This test has as its target Tet3 (endogenous, murine brain) (mouse (endogenous in murine brain)) (UniProt Q8BG87). Put plainly: co-IP; Tet3-endogenous coIP: 500 µg of nuclear brain extract, 2 µg of Tet3 antibody, Dynabeads Protein G, 4 °C; western blot; anti-goat IgG as negative control.

Chains of the proteins cited; added tags and fusions are not shown. Lines headed by an entry give the natural chain unless they say otherwise; changes in a name come on top.
UniProt Q8BG87: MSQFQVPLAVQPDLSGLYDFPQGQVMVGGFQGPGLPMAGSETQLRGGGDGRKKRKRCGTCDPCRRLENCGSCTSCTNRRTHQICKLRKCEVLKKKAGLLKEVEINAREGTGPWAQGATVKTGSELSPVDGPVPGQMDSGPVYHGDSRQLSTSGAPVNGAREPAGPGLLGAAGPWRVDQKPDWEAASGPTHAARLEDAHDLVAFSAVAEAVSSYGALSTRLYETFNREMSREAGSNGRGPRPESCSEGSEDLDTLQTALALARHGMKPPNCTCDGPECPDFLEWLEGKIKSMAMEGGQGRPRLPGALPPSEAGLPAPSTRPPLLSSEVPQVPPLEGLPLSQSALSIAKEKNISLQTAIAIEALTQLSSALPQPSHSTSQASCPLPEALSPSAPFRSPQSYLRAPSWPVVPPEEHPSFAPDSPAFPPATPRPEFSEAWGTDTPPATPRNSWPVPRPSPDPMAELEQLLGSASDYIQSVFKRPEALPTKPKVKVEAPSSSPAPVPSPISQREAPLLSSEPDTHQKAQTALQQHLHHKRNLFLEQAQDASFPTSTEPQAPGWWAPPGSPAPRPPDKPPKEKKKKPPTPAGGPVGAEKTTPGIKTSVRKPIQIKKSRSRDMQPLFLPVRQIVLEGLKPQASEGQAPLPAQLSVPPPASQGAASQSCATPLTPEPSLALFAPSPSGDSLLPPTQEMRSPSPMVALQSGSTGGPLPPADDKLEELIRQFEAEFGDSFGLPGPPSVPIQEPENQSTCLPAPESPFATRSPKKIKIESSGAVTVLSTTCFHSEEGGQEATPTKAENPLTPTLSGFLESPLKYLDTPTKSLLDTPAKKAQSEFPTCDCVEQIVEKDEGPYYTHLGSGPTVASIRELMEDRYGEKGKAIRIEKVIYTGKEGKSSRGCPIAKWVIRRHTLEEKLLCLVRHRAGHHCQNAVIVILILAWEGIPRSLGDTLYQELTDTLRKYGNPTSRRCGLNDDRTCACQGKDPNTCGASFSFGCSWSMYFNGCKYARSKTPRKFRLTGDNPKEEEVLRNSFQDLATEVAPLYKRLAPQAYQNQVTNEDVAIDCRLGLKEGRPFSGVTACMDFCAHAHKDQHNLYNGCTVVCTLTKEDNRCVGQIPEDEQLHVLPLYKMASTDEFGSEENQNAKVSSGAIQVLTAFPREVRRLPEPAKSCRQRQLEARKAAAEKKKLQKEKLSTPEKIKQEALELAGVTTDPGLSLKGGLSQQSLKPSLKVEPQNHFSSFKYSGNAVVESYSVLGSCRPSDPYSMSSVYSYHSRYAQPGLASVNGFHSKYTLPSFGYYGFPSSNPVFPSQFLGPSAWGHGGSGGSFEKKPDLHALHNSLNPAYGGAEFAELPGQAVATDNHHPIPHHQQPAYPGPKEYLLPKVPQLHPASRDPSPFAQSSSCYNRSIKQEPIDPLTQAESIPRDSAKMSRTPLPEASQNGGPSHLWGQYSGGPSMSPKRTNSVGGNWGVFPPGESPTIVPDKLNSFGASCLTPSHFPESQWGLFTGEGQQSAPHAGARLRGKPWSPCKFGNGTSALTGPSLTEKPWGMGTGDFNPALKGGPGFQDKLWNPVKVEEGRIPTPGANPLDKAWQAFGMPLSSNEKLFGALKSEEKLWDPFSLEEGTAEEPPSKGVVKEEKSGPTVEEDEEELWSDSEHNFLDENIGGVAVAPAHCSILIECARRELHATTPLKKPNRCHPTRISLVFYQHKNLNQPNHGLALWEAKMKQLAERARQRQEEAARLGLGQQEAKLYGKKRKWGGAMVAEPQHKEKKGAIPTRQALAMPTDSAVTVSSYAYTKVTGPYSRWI

These are yes or no findings as the source states them, for the method shown. Binding seen in cells or lysates may run through a third protein. Binding can be weak; no strength is given. Sequences can lack the tags named with a protein.

B1: O-linked-β-N-acetylglucosamine-transferase (Ogt), endogenous, murine brain (enzyme, UniProt Q8CGY8 1-1046)
chain: MASSVGNVADSTEPTKRMLSFQGLAELAHREYQAGDFEAAERHCMQLWRQEPDNTGVLLLLSSIHFQCRRLDRSAHFSTLAIKQNPLLAEAYSNLGNVYKERGQLQEAIEHYRHALRLKPDFIDGYINLAAALVAAGDMEGAVQAYVSALQYNPDLYCVRSDLGNLLKALGRLEEAKACYLKAIETQPNFAVAWSNLGCVFNAQGEIWLAIHHFEKAVTLDPNFLDAYINLGNVLKEARIFDRAVAAYLRALSLSPNHAVVHGNLACVYYEQGLIDLAIDTYRRAIELQPHFPDAYCNLANALKEKGSVAEAEDCYNTALRLCPTHADSLNNLANIKREQGNIEEAVRLYRKALEVFPEFAAAHSNLASVLQQQGKLQEALMHYKEAIRISPTFADAYSNMGNTLKEMQDVQGALQCYTRAIQINPAFADAHSNLASIHKDSGNIPEAIASYRTALKLKPDFPDAYCNLAHCLQIVCDWTDYDERMKKLVSIVAEQLEKNRLPSVHPHHSMLYPLSHGFRKAIAERHGNLCLDKINVLHKPPYEHPKDLKLSDGRLRVGYVSSDFGNHPTSHLMQSIPGMHNPDKFEVFCYALSPDDGTNFRVKVMAEANHFIDLSQIPCNGKAADRIHQDGIHILVNMNGYTKGARNELFALRPAPIQAMWLGYPGTSGALFMDYIITDQETSPAEVAEQYSEKLAYMPHTFFIGDHANMFPHLKKKAVIDFKSNGHIYDNRIVLNGIDLKAFLDSLPDVKIVKMKCPDGGDNPDSSNTALNMPVIPMNTIAEAVIEMINRGQIQITINGFSISNGLATTQINNKAATGEEVPRTIIVTTRSQYGLPEDAIVYCNFNQLYKIDPSTLQMWANILKRVPNSVLWLLRFPAVGEPNIQQYAQNMGLPQNRIIFSPVAPKEEHVRRGQLADVCLDTPLCNGHTTGMDVLWAGTPMVTMPGETLASRVAASQLTCLGCLELIAKSRQEYEDIAVKLGTDLEYLKKIRGKVWKQRISSPLFNTKQYTMELERLYLQMWEHYAAGNKPDHMIKPVEVTESA
On to B1, for which the binding entry was “binds”.

Source of the values: paper PMC8253819.
